Measured values published in PMC2794253.
No constants are given. Whether binding was seen depends on the method and setting. In cells and extracts the contact can be indirect. Some results given as binding are weak or reduced against the parent protein; the word gives no strength.

Target: bZIP63 (UniProt B9DGI8)
Assay: split reporter; BiFC in Arabidopsis mesophyll protoplasts from the Tape-Arabidopsis Sandwich method; PEG-mediated co-transfection of plasmids for bZIP63 fused to the N-terminus and the C-terminus of GFP; fluorescence seen in the nucleus

B1: bZIP63 (protein, UniProt B9DGI8 1-314)
chain: MEKVFSDEEISGNHHWSVNGMTSLNRSASEWAFNRFIQESSAAADDGESTTACGVSVSSPPNVPVDSEEYRAFLKSKLNLACAAVAMKRGTFIKPQDTSGRSDNGGANESEQASLASSKATPMMSSAITSGSELSGDEEEADGETNMNPTNVKRVKRMLSNRESARRSRRRKQAHLSELETQVSQLRVENSKLMKGLTDVTQTFNDASVENRVLKANIETLRAKVKMAEETVKRLTGFNPMFHNMPQIVSTVSLPSETSNSPDTTSSQVTTPEIISSGNKGKALIGCKMNRTASMRRVESLEHLQKRIRSVGDQ
With B1 the binding was “binds”.
